Assay results as given in PMC6377607.
Residue numbers refer to the chain shown, from its start. In names and notes the source's numbering stands. These are yes or no findings as the source states them, for the method shown. For some of these results: In cells and extracts the contact can be indirect. Some binding calls cover weakened binding; strength is not graded here. Sequences can lack the tags named with a protein.

How the values were obtained:
[1] = molecular target: T1, Phytoalexin deficient4 (PAD4), yeast two-hybrid fusion (Arabidopsis) (UniProt Q9S745); assay: two-hybrid; Matchmaker system (Clontech), yeast strain AH109, fusions in pGADT7 and pGBKT7; reporter activation on plates lacking leucine, tryptophan, histidine and adenine, growth recorded after 2-5 days at 30 °C
T1 sequence: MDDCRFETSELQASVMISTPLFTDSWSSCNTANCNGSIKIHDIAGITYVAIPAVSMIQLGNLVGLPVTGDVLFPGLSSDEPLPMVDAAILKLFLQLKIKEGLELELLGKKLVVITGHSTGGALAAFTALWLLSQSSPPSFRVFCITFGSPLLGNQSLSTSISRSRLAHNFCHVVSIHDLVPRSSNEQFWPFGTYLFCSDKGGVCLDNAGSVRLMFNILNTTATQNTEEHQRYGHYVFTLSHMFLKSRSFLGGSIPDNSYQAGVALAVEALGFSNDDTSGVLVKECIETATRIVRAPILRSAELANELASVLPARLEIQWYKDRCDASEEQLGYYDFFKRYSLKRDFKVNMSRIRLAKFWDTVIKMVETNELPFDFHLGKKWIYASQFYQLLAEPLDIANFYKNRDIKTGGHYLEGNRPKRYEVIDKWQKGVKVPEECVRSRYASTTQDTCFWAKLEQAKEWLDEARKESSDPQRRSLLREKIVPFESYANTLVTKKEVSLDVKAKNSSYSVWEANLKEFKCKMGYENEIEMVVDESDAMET

PAD4-YFP (Arabidopsis) [2] = molecular target: T2, PAD4-YFP (Arabidopsis) (UniProt Q9S745); assay: co-IP; transient expression in eds1-2 pad4-1 sag101-3 Arabidopsis protoplasts (16 h); IP with GFP-TrapA beads for 2 h at 4 °C in 50 mM Tris pH 7.5, 150 mM NaCl, 10% glycerol, 2 mM EDTA, 5 mM DTT, 0.1% Triton; immunoblot
T2 sequence: T1 sequence

PAD4-YFP (Arabidopsis) [3] = molecular target: T2, PAD4-YFP (Arabidopsis); assay: co-IP; IPs of transiently expressed proteins (host not stated for Supplementary Fig. 5B, C); GFP-TrapA beads for 2 h at 4 °C in 50 mM Tris pH 7.5, 150 mM NaCl, 10% glycerol, 2 mM EDTA, 5 mM DTT, 0.1% Triton; immunoblot

B1: Enhanced disease susceptibility1 (EDS1), wild type, yeast two-hybrid fusion (protein, UniProt Q9XF23 1-623)
chain: MAFEALTGINGDLITRSWSASKQAYLTERYHKEEAGAVVIFAFQPSFSEKDFFDPDNKSSFGEIKLNRVQFPCMRKIGKGDVATVNEAFLKNLEAVIDPRTSFQASVEMAVRSRKQIVFTGHSSGGATAILATVWYLEKYFIRNPNVYLEPRCVTFGAPLVGDSIFSHALGREKWSRFFVNFVTRFDIVPRITLARKASVEETLPHVLAQLDPRNSSVQESEQRITEFYTSVMRDTSTVANQAVCELTGSAEAILETLSSFLELSPYRPAGTFVFSTEKRLVAVNNSDAILQMLFYTCQASDEQEWSLIPFRSIRDHHSYEELVQSMGMKLFNHLDGENSIESSLNDLGVSTRGRQYVQAALEEEKKRVENQKKIIQVIQQERFLKKLAWIEDEYKPKCQAHKNGYYDSFKVSNEENDFKANVKRAELAGVFDEVLGLLKKCQLPDEFEGDIDWIKLATRYRRLVEPLDIANYHRHLKNEDTGPYMKRGRPTRYIYAQRGYEHHILKPNGMIAEDVFWNKVNGLNLGLQLEEIQETLKNSGSECGSCFWAEVEELKGKPYEEVEVRVKTLEGMLREWITAGEVDEKEIFLEGSTFRKWWITLPKNHKSHSPLRDYMMDEITDT
- binding [1]: binds

B2: EDS1^R493A, yeast two-hybrid fusion (protein, UniProt Q9XF23 1-623)
chain: B1 chain with R493A
- binding [1]: binds

B3: EDS1^R493A fused to a FLAG tag (protein, UniProt Q9XF23 1-623)
chain: B1 chain with R493A
- binding (PAD4-YFP (Arabidopsis) [2]): binds
- binding (PAD4-YFP (Arabidopsis) [3]): binds

B4: wild-type EDS1-FLAG (protein, UniProt Q9XF23 1-623)
chain: B1 chain
- binding (PAD4-YFP (Arabidopsis) [2]): binds

B5: FLAG-tagged EDS1^R493K (protein, UniProt Q9XF23 1-623)
chain: B1 chain with R493K
- binding (PAD4-YFP (Arabidopsis) [3]): binds

B6: FLAG-tagged EDS1^R493E (protein, UniProt Q9XF23 1-623)
chain: B1 chain with R493E
- binding (PAD4-YFP (Arabidopsis) [3]): binds
